Laboratory results as given in the supplement of paper PMC10849652.
Some of the results follow.

By UniProt entry, the sequences of proteins in these tests, tags left out. Where a name states a change or a piece, a line headed by the entry shows the natural chain unless it says otherwise.
UniProt Q8WUF8: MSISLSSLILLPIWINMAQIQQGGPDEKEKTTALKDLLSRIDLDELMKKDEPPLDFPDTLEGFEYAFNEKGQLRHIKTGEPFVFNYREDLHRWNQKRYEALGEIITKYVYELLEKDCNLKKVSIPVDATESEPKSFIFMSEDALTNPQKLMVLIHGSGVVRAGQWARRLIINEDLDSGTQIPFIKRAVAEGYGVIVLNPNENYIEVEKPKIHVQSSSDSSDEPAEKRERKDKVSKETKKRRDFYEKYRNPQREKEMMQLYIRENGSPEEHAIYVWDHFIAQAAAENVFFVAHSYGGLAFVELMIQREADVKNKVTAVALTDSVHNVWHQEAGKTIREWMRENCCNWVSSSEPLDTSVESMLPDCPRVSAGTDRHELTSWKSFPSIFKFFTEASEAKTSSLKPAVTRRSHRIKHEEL
UniProt Q9Y624, whole entry, looked up, stated change not applied: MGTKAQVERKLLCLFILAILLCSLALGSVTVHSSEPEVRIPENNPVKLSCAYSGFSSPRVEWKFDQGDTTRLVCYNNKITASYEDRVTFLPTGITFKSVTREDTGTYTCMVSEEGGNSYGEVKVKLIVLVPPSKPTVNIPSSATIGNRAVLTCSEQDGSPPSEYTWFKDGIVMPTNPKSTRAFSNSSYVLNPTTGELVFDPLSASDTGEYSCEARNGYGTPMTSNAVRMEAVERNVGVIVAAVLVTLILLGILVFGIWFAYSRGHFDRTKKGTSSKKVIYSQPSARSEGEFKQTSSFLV
UniProt Q6IPR1: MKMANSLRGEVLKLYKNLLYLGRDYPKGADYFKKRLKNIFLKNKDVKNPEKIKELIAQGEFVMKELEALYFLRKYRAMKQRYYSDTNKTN
UniProt Q9H0Q0: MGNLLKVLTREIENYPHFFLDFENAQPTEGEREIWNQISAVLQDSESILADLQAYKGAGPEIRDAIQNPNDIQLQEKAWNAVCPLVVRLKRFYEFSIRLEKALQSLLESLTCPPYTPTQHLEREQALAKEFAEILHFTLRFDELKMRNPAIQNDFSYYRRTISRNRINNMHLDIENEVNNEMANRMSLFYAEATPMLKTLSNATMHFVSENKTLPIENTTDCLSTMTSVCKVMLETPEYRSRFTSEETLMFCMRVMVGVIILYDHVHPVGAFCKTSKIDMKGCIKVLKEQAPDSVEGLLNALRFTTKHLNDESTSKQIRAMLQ
UniProt O75063: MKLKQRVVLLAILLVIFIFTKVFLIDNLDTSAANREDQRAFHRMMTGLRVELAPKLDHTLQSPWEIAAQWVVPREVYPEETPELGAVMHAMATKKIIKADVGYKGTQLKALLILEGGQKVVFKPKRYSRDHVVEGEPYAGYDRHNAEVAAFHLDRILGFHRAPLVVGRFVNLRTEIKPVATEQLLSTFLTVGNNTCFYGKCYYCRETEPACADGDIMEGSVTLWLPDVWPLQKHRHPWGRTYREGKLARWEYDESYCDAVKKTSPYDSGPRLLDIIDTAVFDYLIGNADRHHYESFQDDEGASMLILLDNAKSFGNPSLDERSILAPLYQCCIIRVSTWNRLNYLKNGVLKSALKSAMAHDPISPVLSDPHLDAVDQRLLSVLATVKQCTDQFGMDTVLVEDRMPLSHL
UniProt Q9BQ89: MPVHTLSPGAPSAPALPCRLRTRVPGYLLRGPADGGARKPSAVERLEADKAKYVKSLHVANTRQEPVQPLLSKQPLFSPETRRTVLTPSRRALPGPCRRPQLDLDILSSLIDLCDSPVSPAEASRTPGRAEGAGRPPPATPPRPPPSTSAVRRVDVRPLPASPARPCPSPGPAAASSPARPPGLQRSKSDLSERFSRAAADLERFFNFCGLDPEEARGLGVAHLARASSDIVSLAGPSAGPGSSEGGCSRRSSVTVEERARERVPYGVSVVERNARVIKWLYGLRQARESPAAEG
UniProt Q9BYI3: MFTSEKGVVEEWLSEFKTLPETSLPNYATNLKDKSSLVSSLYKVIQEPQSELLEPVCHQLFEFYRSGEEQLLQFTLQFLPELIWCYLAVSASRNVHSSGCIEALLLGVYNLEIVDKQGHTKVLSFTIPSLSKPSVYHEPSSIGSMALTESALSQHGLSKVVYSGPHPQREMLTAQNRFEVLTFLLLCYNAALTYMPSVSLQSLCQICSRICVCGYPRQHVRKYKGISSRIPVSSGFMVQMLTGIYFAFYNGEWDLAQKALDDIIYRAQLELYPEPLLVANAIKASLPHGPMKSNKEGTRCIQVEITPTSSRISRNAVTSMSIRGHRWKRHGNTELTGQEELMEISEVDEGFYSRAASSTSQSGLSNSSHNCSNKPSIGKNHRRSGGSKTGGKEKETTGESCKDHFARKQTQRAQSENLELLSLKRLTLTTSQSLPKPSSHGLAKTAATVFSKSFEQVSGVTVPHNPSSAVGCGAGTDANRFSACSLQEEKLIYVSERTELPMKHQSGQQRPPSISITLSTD
UniProt Q9Y2C4: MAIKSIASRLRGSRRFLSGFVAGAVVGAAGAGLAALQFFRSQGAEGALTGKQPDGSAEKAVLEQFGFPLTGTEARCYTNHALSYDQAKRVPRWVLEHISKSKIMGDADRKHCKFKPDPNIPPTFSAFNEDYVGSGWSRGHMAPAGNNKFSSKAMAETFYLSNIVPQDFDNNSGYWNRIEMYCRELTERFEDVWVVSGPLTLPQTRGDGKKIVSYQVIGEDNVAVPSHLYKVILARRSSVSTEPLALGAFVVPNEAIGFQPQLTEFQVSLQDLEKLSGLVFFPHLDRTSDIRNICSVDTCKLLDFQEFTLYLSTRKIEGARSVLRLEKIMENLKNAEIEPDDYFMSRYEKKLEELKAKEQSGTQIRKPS
UniProt Q16134: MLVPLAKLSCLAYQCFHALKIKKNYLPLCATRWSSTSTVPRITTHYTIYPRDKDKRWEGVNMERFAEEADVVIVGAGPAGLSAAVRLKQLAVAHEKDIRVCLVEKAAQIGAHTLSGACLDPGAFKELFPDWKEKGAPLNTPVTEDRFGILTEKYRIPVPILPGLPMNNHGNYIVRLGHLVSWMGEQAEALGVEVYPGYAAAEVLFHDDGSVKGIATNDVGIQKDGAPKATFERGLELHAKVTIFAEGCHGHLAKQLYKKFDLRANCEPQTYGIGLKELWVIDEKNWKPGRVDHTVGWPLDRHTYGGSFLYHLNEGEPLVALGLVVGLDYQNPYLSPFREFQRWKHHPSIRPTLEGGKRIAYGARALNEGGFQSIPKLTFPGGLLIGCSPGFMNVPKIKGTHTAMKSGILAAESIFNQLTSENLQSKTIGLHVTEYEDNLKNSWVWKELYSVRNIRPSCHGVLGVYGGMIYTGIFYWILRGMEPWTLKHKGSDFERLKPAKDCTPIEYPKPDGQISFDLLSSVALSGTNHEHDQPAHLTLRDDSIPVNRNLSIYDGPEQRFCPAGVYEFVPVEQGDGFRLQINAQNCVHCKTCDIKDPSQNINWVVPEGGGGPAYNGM
UniProt Q5HYJ3: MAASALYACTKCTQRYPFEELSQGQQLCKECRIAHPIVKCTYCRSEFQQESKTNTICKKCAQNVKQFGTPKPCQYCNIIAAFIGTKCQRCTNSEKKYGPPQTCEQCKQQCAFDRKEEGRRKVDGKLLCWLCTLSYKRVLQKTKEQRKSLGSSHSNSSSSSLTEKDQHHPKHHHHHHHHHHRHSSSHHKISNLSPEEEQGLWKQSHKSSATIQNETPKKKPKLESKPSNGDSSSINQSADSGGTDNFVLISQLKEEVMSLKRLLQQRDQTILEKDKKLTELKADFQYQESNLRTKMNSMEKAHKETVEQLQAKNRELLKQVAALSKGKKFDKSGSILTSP
UniProt Q96DF8: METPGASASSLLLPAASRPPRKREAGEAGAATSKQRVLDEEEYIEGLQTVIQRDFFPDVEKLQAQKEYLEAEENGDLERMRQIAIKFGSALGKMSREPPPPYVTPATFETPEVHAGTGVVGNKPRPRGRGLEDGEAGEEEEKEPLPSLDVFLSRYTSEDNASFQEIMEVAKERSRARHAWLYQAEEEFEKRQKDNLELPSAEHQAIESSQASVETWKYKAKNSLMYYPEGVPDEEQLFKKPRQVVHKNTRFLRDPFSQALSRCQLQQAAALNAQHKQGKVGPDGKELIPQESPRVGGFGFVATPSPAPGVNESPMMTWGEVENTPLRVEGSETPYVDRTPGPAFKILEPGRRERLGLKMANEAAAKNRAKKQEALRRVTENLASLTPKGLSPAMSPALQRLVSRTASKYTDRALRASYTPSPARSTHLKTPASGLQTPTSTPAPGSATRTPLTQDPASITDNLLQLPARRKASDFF
UniProt Q5T8I3: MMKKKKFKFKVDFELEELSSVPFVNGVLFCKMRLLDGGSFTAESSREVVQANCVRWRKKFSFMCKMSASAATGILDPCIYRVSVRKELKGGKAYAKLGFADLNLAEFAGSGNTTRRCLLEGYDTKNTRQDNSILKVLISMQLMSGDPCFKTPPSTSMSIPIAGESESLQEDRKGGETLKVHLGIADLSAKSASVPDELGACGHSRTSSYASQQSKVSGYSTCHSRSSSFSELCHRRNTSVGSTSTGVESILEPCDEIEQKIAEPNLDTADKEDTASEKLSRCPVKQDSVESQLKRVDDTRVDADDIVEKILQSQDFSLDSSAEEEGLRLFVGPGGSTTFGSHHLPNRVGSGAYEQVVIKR
UniProt Q9UQ84: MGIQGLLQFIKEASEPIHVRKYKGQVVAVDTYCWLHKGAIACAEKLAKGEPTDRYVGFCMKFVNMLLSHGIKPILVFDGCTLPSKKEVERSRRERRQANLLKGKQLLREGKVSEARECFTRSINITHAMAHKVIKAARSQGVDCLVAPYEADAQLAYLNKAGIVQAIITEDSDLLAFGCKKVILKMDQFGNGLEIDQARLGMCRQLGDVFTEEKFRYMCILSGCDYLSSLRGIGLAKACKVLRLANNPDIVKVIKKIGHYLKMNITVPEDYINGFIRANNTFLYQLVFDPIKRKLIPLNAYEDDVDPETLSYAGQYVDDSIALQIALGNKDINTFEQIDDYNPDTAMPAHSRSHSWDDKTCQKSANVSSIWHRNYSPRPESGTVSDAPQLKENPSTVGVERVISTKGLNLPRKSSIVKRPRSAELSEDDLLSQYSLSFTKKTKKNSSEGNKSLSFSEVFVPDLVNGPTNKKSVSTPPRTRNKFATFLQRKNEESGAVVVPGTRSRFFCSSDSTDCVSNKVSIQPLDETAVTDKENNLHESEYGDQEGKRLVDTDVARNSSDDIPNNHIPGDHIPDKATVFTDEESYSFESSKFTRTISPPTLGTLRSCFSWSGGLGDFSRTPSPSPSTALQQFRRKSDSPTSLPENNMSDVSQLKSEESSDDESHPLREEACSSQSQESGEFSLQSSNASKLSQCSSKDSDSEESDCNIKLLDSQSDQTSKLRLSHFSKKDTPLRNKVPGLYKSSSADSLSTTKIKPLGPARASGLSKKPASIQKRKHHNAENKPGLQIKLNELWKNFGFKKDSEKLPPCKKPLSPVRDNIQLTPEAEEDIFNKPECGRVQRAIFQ
UniProt Q56NI9: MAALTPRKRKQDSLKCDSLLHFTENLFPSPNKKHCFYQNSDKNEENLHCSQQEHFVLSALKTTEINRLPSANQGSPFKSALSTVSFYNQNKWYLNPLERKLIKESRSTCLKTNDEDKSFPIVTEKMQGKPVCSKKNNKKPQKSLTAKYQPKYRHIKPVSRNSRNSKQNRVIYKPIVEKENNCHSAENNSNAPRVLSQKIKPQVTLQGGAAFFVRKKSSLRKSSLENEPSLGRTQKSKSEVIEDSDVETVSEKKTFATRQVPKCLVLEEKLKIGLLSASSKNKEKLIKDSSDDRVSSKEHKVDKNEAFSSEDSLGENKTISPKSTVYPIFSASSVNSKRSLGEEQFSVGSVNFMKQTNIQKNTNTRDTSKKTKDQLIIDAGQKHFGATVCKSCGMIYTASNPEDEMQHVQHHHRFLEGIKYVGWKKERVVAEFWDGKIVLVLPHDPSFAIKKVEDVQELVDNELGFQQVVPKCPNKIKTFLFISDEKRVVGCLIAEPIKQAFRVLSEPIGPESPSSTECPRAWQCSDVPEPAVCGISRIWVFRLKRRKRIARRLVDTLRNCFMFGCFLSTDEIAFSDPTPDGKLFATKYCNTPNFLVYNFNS

Experiments:
Experiment in all cases: log2 fold change, soluble protein after heating vs DMSO (PISA); higher = thermal stabilisation; K562 lysate, 10 uM; active = over 0.2 and 3.5 SD of the protein, either way, in both replicates (recomputed)
lapatinib = compound: CS(=O)(=O)CCNCc1ccc(-c2ccc3ncnc(Nc4ccc(OCc5cccc(F)c5)c(Cl)c4)c3c2)o1 [lapatinib]
In short: (§1)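 Thermal stability, expressed as log-two fold change relative to solvent controls, is given from duplicates. Crude K562 extract in PBS pH 7.4 with 1 mM MgCl2, at 1 mg/mL protein, was treated with 10 μM compound for 30 min and heated in aliquots for 3 min across 48°C-58°C. After pooling, adjustment to 0.5% NP-40 at 4°C and centrifugation at 21,000xg for 90 min, supernatant protein was measured by TMTpro 16plex LC-MS/MS with channel sums equalised.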

pictilisib = compound: CS(=O)(=O)N1CCN(Cc2cc3nc(-c4cccc5[nH]ncc45)nc(N4CCOCC4)c3s2)CC1 [pictilisib]
In short: as §1

duvelisib = compound: C[C@H](Nc1ncnc2nc[nH]c12)c1cc2cccc(Cl)c2c(=O)n1-c1ccccc1 [duvelisib]
In short: as §1

tozasertib = compound: Cc1cc(Nc2cc(N3CCN(C)CC3)nc(Sc3ccc(NC(=O)C4CC4)cc3)n2)n[nH]1 [tozasertib]
In short: as §1

bafetinib = compound: Cc1ccc(NC(=O)c2ccc(CN3CC[C@H](N(C)C)C3)c(C(F)(F)F)c2)cc1Nc1nccc(-c2cncnc2)n1 [bafetinib]
In short: as §1

nilotinib = compound: Cc1cn(-c2cc(NC(=O)c3ccc(C)c(Nc4nccc(-c5cccnc5)n4)c3)cc(C(F)(F)F)c2)cn1 [nilotinib]
In short: as §1

[1] = compound: Cc1nc(Nc2n[nH]c3c2CN(C(=O)N[C@H](CN(C)C)c2ccccc2)C3(C)C)c2sccc2n1
In short: as §1

dasatinib = compound: Cc1nc(Nc2ncc(C(=O)Nc3c(C)cccc3Cl)s2)cc(N2CCN(CCO)CC2)n1 [dasatinib]
In short: as §1

[2] = compound: Cc1ncc(-c2ccnc(Nc3ccc(S(C)(=O)=O)cc3)n2)n1C(C)C
In short: as §1

[3] = compound: Cn1cc(-c2ccc3c(c2)CCN3C(=O)Cc2cccc(C(F)(F)F)c2)c2c(N)ncnc21
In short: as §1

tipifarnib = compound: Cn1cncc1[C@@](N)(c1ccc(Cl)cc1)c1ccc2c(c1)c(-c1cccc(Cl)c1)cc(=O)n2C [tipifarnib]
In short: as §1

[4] = compound: NC(=O)c1cnc(N[C@@H]2CCCC[C@@H]2N)nc1Nc1cccc(-n2nccn2)c1
In short: as §1

[5] = compound: NC1(c2ccc(-c3nc4ccn5c(=O)[nH]nc5c4cc3-c3ccccc3)cc2)CCC1
In short: as §1

crizotinib = compound: C[C@@H](Oc1cc(-c2cnn(C3CCNCC3)c2)cnc1N)c1c(Cl)ccc(F)c1Cl [crizotinib]
In short: as §1

[6] = compound: C[C@H](C1=CC=C(C=C1)C(=O)NC2=C3C=CNC3=NC=C2)N
In short: as §1

gandotinib = compound: Cc1cc(Nc2cc(CN3CCOCC3)c3nc(C)c(Cc4ccc(Cl)cc4F)n3n2)n[nH]1 [gandotinib]
In short: as §1

doramapimod = compound: Cc1ccc(-n2nc(C(C)(C)C)cc2NC(=O)Nc2ccc(OCCN3CCOCC3)c3ccccc23)cc1 [doramapimod]
In short: as §1

[7] = compound: Cc1cccc(CC(=O)N2CCc3c2ccc(-c2cn(C)c4ncnc(N)c24)c3F)n1
In short: as §1

quisinostat = compound: Cn1cc(CNCC2CCN(c3ncc(C(=O)NO)cn3)CC2)c2ccccc21 [quisinostat]
In short: as §1

[8] = compound: NC(=O)Nc1cc(-c2cccc(F)c2)sc1C(=O)N[C@H]1CCCNC1
In short: as §1

Target | log2 fold change (lapatinib) | log2 fold change (pictilisib) | log2 fold change (duvelisib) | log2 fold change (tozasertib) | log2 fold change (bafetinib) | log2 fold change (nilotinib) | log2 fold change [1] | log2 fold change (dasatinib) | log2 fold change [2] | log2 fold change [3] | log2 fold change (tipifarnib) | log2 fold change [4] | log2 fold change [5] | log2 fold change (crizotinib) | log2 fold change [6] | log2 fold change (gandotinib) | log2 fold change (doramapimod) | log2 fold change [7] | log2 fold change (quisinostat) | log2 fold change [8]
FAM172A (UniProt Q8WUF8) | inactive: 0.014 | inactive: -0.204 | inactive: -0.011 | inactive: -0.13 | inactive: -0.12 | inactive: 0.295 | inactive: 0.006 | inactive: 0.02 | inactive: -0.046 | inactive: 0.282 | inactive: 0.011 | inactive: 0.013 | inactive: -0.078 | – | – | – | – | – | – | –
F2 (UniProt P00734) | inactive: -0.012 | inactive: 0.084 | – | inactive: -0.078 | inactive: -0.004 | – | – | – | – | – | – | inactive: -0.041 | – | – | – | – | – | – | – | –
F11R (UniProt Q9Y624) | inactive: -0.005 | inactive: -0.016 | inactive: 0.013 | inactive: -0.014 | inactive: -0.003 | inactive: 0.042 | inactive: 0.064 | inactive: 0.02 | inactive: 0.03 | inactive: -0.001 | inactive: -0.034 | inactive: -0.007 | inactive: 0.018 | inactive: 0.045 | inactive: -0.143 | inactive: 0.073 | inactive: -0.035 | inactive: 0.016 | inactive: -0.036 | inactive: 0.034
FAM193A, A0A1B0GVL4 | inactive: -0.004 | inactive: 0.036 | – | inactive: 0.143 | inactive: -0.138 | inactive: -0.001 | inactive: -0.016 | – | inactive: -0.04 | – | inactive: -0.041 | inactive: -0.119 | inactive: 0.055 | inactive: -0.009 | inactive: -0.061 | inactive: 0.053 | inactive: -0.044 | inactive: 0.245 | inactive: 0.036 | inactive: 0.064
FAM126B (UniProt Q8IXS8) | inactive: 0.047 | inactive: -0.008 | inactive: 0.052 | inactive: 0.091 | inactive: 0.038 | – | – | inactive: -0.078 | – | inactive: 0.092 | – | inactive: 0.065 | inactive: -0.082 | – | inactive: -0.081 | inactive: 0.011 | – | inactive: 0.096 | – | –
ETFRF1 (UniProt Q6IPR1) | inactive: 0.021 | inactive: -0.01 | inactive: -0.004 | – | inactive: -0.039 | inactive: -0.038 | inactive: 0.032 | inactive: -0.01 | inactive: -0.02 | inactive: 0.062 | inactive: 0.117 | inactive: 0.071 | inactive: 0.046 | inactive: -0.004 | inactive: 0.112 | inactive: -0.087 | inactive: -0.057 | inactive: -0.039 | inactive: 0.088 | inactive: -0.028
FAM49A (UniProt Q9H0Q0) | inactive: -0.058 | inactive: -0.444 | – | inactive: -0.027 | inactive: 0.087 | inactive: 0.05 | inactive: 0.062 | – | inactive: -0.102 | – | inactive: 0.162 | inactive: -0.004 | inactive: -0.09 | inactive: -0.13 | inactive: 0.065 | inactive: -0.126 | inactive: -0.088 | inactive: 0.137 | inactive: -0.119 | inactive: 0.127
ETF1 (UniProt P62495) | inactive: -0.017 | inactive: 0 | inactive: 0.007 | inactive: -0.018 | inactive: -0.027 | inactive: -0.014 | inactive: -0.015 | inactive: -0.006 | inactive: -0.018 | inactive: -0.017 | inactive: 0 | inactive: 0.005 | inactive: -0.001 | inactive: -0.013 | inactive: -0.002 | inactive: 0.01 | inactive: 0.022 | inactive: -0.006 | inactive: -0.018 | inactive: -0.006
FAM20B (UniProt O75063) | inactive: 0.033 | inactive: -0.019 | inactive: 0.043 | inactive: 0.01 | inactive: -0.056 | inactive: 0.066 | inactive: -0.044 | inactive: -0.01 | inactive: -0.004 | inactive: 0.016 | inactive: -0.05 | inactive: 0.022 | inactive: 0.043 | inactive: -0.027 | inactive: -0.026 | inactive: -0.075 | inactive: -0.012 | inactive: -0.017 | inactive: 0.035 | inactive: 0.037
FAM110A (UniProt Q9BQ89) | inactive: 0.136 | inactive: 0 | – | – | inactive: 0.066 | – | – | – | – | – | – | inactive: -0.003 | inactive: -0.058 | inactive: 0.056 | inactive: -0.099 | inactive: 0.041 | inactive: -0.173 | inactive: -0.127 | inactive: 0.013 | inactive: -0.226
FAM126A (UniProt Q9BYI3) | inactive: -0.17 | inactive: -0.005 | inactive: 0.092 | – | inactive: -0.012 | inactive: 0.027 | inactive: 0.041 | inactive: -0.074 | inactive: -0.006 | inactive: 0.025 | inactive: -0.069 | inactive: 0.017 | inactive: -0.119 | inactive: -0.059 | inactive: 0.043 | inactive: -0.03 | inactive: -0.041 | inactive: -0.01 | inactive: -0.13 | inactive: 0.028
ERP29 (UniProt P30040) | inactive: -0.002 | inactive: 0.017 | inactive: -0.005 | inactive: 0.022 | inactive: 0.022 | inactive: 0.042 | inactive: -0.015 | inactive: 0.011 | inactive: -0.012 | inactive: 0.006 | inactive: 0.028 | inactive: -0.019 | inactive: 0.012 | inactive: 0.052 | inactive: 0.17 | inactive: -0.053 | inactive: -0.043 | inactive: -0.113 | inactive: 0.06 | inactive: -0.006
EXOG (UniProt Q9Y2C4) | inactive: 0.007 | inactive: 0.038 | inactive: 0.024 | inactive: 0.02 | inactive: -0.058 | inactive: -0.102 | inactive: -0.207 | inactive: -0.018 | inactive: -0.195 | inactive: 0.052 | inactive: -0.082 | inactive: 0.011 | inactive: -0.171 | – | inactive: -0.386 | inactive: 0.09 | – | inactive: 0.014 | – | –
ETFDH (UniProt Q16134) | inactive: -0.03 | inactive: -0.024 | inactive: -0.057 | inactive: 0.039 | inactive: 0.023 | inactive: -0.011 | inactive: -0.004 | inactive: -0.017 | inactive: 0.026 | inactive: -0.006 | inactive: 0.022 | inactive: 0.021 | inactive: -0.008 | inactive: 0.015 | inactive: 0.009 | inactive: -0.005 | inactive: 0.035 | inactive: 0.021 | inactive: 0.032 | inactive: -0.003
FAM76B (UniProt Q5HYJ3) | inactive: -0.049 | – | inactive: -0.02 | inactive: -0.021 | – | inactive: -0.044 | inactive: 0.019 | inactive: 0.093 | inactive: -0.004 | inactive: 0.005 | inactive: -0.019 | inactive: -0.026 | inactive: -0.07 | inactive: 0.028 | inactive: -0.19 | inactive: 0.023 | inactive: -0.016 | active: 0.269 | inactive: -0.028 | inactive: -0.032
EXOC6B (UniProt Q9Y2D4) | inactive: 0.057 | – | – | inactive: -0.06 | – | inactive: 0.025 | inactive: 0.019 | – | inactive: -0.013 | – | inactive: 0.009 | inactive: -0.015 | – | inactive: -0.116 | – | – | inactive: 0 | – | inactive: -0.045 | inactive: 0.015
ESS2 (UniProt Q96DF8) | inactive: 0.036 | inactive: 0.017 | inactive: -0.066 | inactive: -0.006 | inactive: -0.008 | inactive: 0.02 | inactive: -0.003 | inactive: 0.061 | inactive: -0.026 | inactive: 0.013 | inactive: -0.082 | inactive: 0.003 | inactive: -0.018 | inactive: 0.055 | inactive: -0.04 | inactive: 0.159 | inactive: 0.112 | inactive: 0.012 | inactive: -0.098 | inactive: 0.006
FAM102B (UniProt Q5T8I3) | inactive: -0.042 | inactive: -0.031 | – | inactive: 0.051 | inactive: 0.021 | – | – | – | – | – | – | inactive: 0.058 | inactive: 0.13 | inactive: -0.184 | inactive: 0.088 | inactive: -0.042 | inactive: 0.096 | inactive: -0.016 | inactive: -0.214 | inactive: 0.007
EXO1 (UniProt Q9UQ84) | inactive: 0.054 | – | – | – | – | inactive: 0.01 | inactive: 0.057 | – | inactive: 0.076 | – | inactive: 0.001 | inactive: 0.03 | inactive: -0.306 | inactive: 0.041 | inactive: -0.13 | inactive: 0.238 | inactive: -0.056 | inactive: 0.101 | inactive: -0.01 | inactive: 0.082
ESCO2 (UniProt Q56NI9) | inactive: -0.055 | – | inactive: -0.029 | inactive: -0.04 | – | – | – | inactive: -0.013 | – | inactive: 0.507 | – | inactive: 0.007 | inactive: 0.012 | inactive: 0.022 | inactive: 0.421 | inactive: -0.117 | inactive: 0.039 | inactive: -0.299 | inactive: -0.045 | inactive: 0.009

As a short view, part of the list above.
Target | log2 fold change (lapatinib) | log2 fold change (pictilisib) | log2 fold change (duvelisib) | log2 fold change (tozasertib) | log2 fold change (bafetinib) | log2 fold change (nilotinib) | log2 fold change [1] | log2 fold change (dasatinib) | log2 fold change [2] | log2 fold change [3] | log2 fold change (tipifarnib) | log2 fold change [4] | log2 fold change [5] | log2 fold change (crizotinib) | log2 fold change [6] | log2 fold change (gandotinib) | log2 fold change (doramapimod) | log2 fold change [7] | log2 fold change (quisinostat) | log2 fold change [8]
FAM126B (UniProt Q8IXS8) | inactive: 0.047 | inactive: -0.008 | inactive: 0.052 | inactive: 0.091 | inactive: 0.038 | – | – | inactive: -0.078 | – | inactive: 0.092 | – | inactive: 0.065 | inactive: -0.082 | – | inactive: -0.081 | inactive: 0.011 | – | inactive: 0.096 | – | –
ETFRF1 (UniProt Q6IPR1) | inactive: 0.021 | inactive: -0.01 | inactive: -0.004 | – | inactive: -0.039 | inactive: -0.038 | inactive: 0.032 | inactive: -0.01 | inactive: -0.02 | inactive: 0.062 | inactive: 0.117 | inactive: 0.071 | inactive: 0.046 | inactive: -0.004 | inactive: 0.112 | inactive: -0.087 | inactive: -0.057 | inactive: -0.039 | inactive: 0.088 | inactive: -0.028
